Source: the supplement of paper PMC4604168 (melanoma cell lines)
The list shows a part of the results. Many values rest on one well or one pass, so single values are uncertain.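 Imaging used 1,536-well plates; nuclei positive for cleaved PARP by antibody were divided by total DNA-stained nuclei to yield the apoptosis fraction. Doses for screening kept most cells viable, and cell lines differ markedly in resting and induced cleaved-PARP levels.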

Tested on: LB2518-MEL
Assay: cleaved PARP positive nuclei fraction relative to DMSO control; melanoma cells; higher = more apoptosis
Details: library dose: low library concentration; 72 h

| Compound | cleaved PARP positive nuclei fraction |
| --- | --- |
| CC(C)(C)c1cnc(CSc2cnc(NC(=O)C3CCNCC3)s2)o1 + C/C(O)=C(\C#N)C(=O)Nc1cc(Br)ccc1Br [LFM-A13] (first compound 0.01 µM, partner dose 2 µM) | 93.5% |
| C#Cc1cccc(Nc2ncnc3cc(OCCOC)c(OCCOC)cc23)c1 [erlotinib] + O=C(Oc1ccc([N+](=O)[O-])cc1)N1CCC(C(O)(c2ccc3c(c2)OCO3)c2ccc3c(c2)OCO3)CC1 [JZL184] (first compound 0.8 µM, partner dose 1 µM) | 82.6% |
| CC(C)(C)c1cnc(CSc2cnc(NC(=O)C3CCNCC3)s2)o1 + Cc1cc(SCc2sc(-c3ccc(C(F)(F)F)c(F)c3)nc2C)ccc1OCC(=O)O [GW0742] (first compound 0.01 µM, partner dose 2 µM) | 179% |
| NCC(=O)Nc1ccc(-n2nc(C(F)(F)F)cc2-c2ccc3c(ccc4ccccc43)c2)cc1 + O=C(Oc1ccc([N+](=O)[O-])cc1)N1CCC(C(O)(c2ccc3c(c2)OCO3)c2ccc3c(c2)OCO3)CC1 [JZL184] (first compound 1 µM, partner dose 1 µM) | 74% |
| NCC(=O)Nc1ccc(-n2nc(C(F)(F)F)cc2-c2ccc3c(ccc4ccccc43)c2)cc1 + C/C(O)=C(\C#N)C(=O)Nc1cc(Br)ccc1Br [LFM-A13] (first compound 1 µM, partner dose 2 µM) | 92.1% |
| COc1cc(Nc2ncc(F)c(Nc3ccc4c(n3)NC(=O)C(C)(C)O4)n2)cc(OC)c1OC [Tamatinib] + O=C(Oc1ccc([N+](=O)[O-])cc1)N1CCC(C(O)(c2ccc3c(c2)OCO3)c2ccc3c(c2)OCO3)CC1 [JZL184] (first compound 0.4 µM, partner dose 1 µM) | 90.5% |
| O=C(O)C(=O)Nc1sc2c(c1C(=O)O)CCNC2 + O=C(Oc1ccc([N+](=O)[O-])cc1)N1CCC(C(O)(c2ccc3c(c2)OCO3)c2ccc3c(c2)OCO3)CC1 [JZL184] (first compound 1.66667 µM, partner dose 1 µM) | 161% |
| Cc1cc(SCc2sc(-c3ccc(C(F)(F)F)c(F)c3)nc2C)ccc1OCC(=O)O + O=C(Oc1ccc([N+](=O)[O-])cc1)N1CCC(C(O)(c2ccc3c(c2)OCO3)c2ccc3c(c2)OCO3)CC1 [JZL184] (first compound 2 µM, partner dose 1 µM) | 138% |

An excerpt of the results above, as a working copy:

| Compound | cleaved PARP positive nuclei fraction |
| --- | --- |
| CC(C)(C)c1cnc(CSc2cnc(NC(=O)C3CCNCC3)s2)o1 + C/C(O)=C(\C#N)C(=O)Nc1cc(Br)ccc1Br [LFM-A13] (first compound 0.01 µM, partner dose 2 µM) | 93.5% |
| C#Cc1cccc(Nc2ncnc3cc(OCCOC)c(OCCOC)cc23)c1 [erlotinib] + O=C(Oc1ccc([N+](=O)[O-])cc1)N1CCC(C(O)(c2ccc3c(c2)OCO3)c2ccc3c(c2)OCO3)CC1 [JZL184] (first compound 0.8 µM, partner dose 1 µM) | 82.6% |
